# According to patent publication US9718781B2, “Methods and compounds for treating proliferative disorders and viral infections” (University College Dublin, National University of Ireland, …, priority 2012, dated 2017):
# Some entries share one result that the patent states for a list of compounds.
# Tested on: A/Puerto Rico/8/1934 (H1N1) influenza A virus
# Type: in vivo, BALB/c mice
# Settings: Tamiflu 10 mg/kg, TP20 360 μg/kg, oral gavage twice daily
smiles,measurement,value
CCOC(=O)C1=C[C@@H](OC(CC)CC)[C@H](NC(C)=O)[C@@H](N)C1 [Tamiflu],loss of body weight post-viral infection,up to 20%
